Data source: PubChem BioAssay AID1671195 (Yale University, 2021)

- Aim: 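Knockdowns that increase or decrease uptake of fluorescent LDL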 (primary screen)
- Cell system: human Huh7 hepatoma cells
- Knock-down reagent: siRNA pool against human genes, 18 nM
- Time to read-out: about 2 to 2.5 days of knockdown, then 8 h LDL uptake
- Conditions: DiI-labelled LDL at 30 µg/ml for 8 h, in lipoprotein-deficient serum medium
- Detection: 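Fluorescent LDL signal imaged in cells, scaled to the plate median, robust z-score for each replicate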
- Direction: robust z-score: higher = more LDL uptake after knockdown
- Call rule: 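a gene counts as active if at least two replicate z-scores exceed ±2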
Here is a random part of about 22,000 reagents. About 1,510 of all reagents (6.9%) count as active. 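Active includes knockdowns raising or lowering LDL uptake; positive z-scores mean more uptake, negative mean less.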 Reagent sequences are not shown.

With knock-down of LOC402279 (glutamate metabotropic receptor 8 pseudogene) [SID442889620], the record shows robust z-score, replicate 1 = 0.748; robust z-score, replicate 2 = 0.34; robust z-score, replicate 3 = 0.511; inactive.
ZNF362 (zinc finger protein 362) [SID442892635] scored robust z-score, replicate 1 = 0.78; robust z-score, replicate 2 = -0.039; robust z-score, replicate 3 = -0.314; inactive.
For SLC39A13 [SID442901672], the values are robust z-score, replicate 1 = -1.21; robust z-score, replicate 2 = -0.956; robust z-score, replicate 3 = -0.641; inactive.
After knock-down of TIMCC (TIM double twin CX3C motif chaperone) [SID442892095], the record shows robust z-score, replicate 1 = 0.246; robust z-score, replicate 2 = 0.18; robust z-score, replicate 3 = 0.203; inactive.
Against ZSCAN29 (zinc finger and SCAN domain containing 29) [SID442898868], the entry reads robust z-score, replicate 1 = -0.702; robust z-score, replicate 2 = -0.591; robust z-score, replicate 3 = -0.351; inactive.
Against C10orf62 (chromosome 10 open reading frame 62) [SID442890565], the entry reads robust z-score, replicate 1 = -0.628; robust z-score, replicate 2 = 1.2; robust z-score, replicate 3 = 0.63; inactive.

A portion from the list above:
TIMCC (TIM double twin CX3C motif chaperone) [SID442892095] | robust z-score, replicate 1 = 0.246; robust z-score, replicate 2 = 0.18; robust z-score, replicate 3 = 0.203; Call = inactive
ZSCAN29 (zinc finger and SCAN domain containing 29) [SID442898868] | robust z-score, replicate 1 = -0.702; robust z-score, replicate 2 = -0.591; robust z-score, replicate 3 = -0.351; Call = inactive

Further reagents follow:
AGAP11 (ArfGAP with GTPase domain, ankyrin repeat and PH domain 11) [SID442896743] gave robust z-score, replicate 1 = -0.0902; robust z-score, replicate 2 = -0.263; robust z-score, replicate 3 = -0.569; inactive.
Against LOC389888 (retired record) [SID442887679], the entry reads robust z-score, replicate 1 = 0.852; robust z-score, replicate 2 = 0.975; robust z-score, replicate 3 = 0.764; inactive.
Depletion of LOC441239 [SID442897602] resulted in: robust z-score, replicate 1 = -0.626; robust z-score, replicate 2 = -0.161; robust z-score, replicate 3 = -0.423; inactive.
Silencing of VPS13C (vacuolar protein sorting 13 homolog C) [SID442886780] came out at: robust z-score, replicate 1 = 0.565; robust z-score, replicate 2 = 0.688; robust z-score, replicate 3 = 1.95; inactive.
After knock-down of SRP68 (signal recognition particle 68) [SID442899736], the screen gave robust z-score, replicate 1 = -1.11; robust z-score, replicate 2 = -0.811; robust z-score, replicate 3 = -0.0652; inactive.
With knock-down of LOC388709 (retired record) [SID442895221] the results were robust z-score, replicate 1 = -0.165; robust z-score, replicate 2 = 0.249; robust z-score, replicate 3 = -0.525; inactive.
